# Primary screen of a compound library

The chains behind the UniProt entries cited, without tags or fusion partners. Residues count along the entry.
UniProt Q8IDJ8, 1-583: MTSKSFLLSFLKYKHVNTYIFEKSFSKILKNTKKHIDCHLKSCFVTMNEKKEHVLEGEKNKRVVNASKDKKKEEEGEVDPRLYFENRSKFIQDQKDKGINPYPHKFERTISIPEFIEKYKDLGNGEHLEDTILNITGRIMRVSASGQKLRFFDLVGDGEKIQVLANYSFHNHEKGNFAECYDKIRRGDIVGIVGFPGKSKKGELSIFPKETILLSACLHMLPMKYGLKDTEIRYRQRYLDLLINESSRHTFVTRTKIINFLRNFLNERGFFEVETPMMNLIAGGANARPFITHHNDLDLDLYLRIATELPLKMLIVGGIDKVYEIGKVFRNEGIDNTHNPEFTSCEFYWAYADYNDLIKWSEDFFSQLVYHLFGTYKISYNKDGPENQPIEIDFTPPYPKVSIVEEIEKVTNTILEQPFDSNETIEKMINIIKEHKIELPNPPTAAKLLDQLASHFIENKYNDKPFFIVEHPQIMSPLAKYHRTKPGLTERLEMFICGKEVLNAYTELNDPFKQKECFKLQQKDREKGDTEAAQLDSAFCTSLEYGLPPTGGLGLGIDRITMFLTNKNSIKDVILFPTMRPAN
UniProt I6X8D2, whole entry: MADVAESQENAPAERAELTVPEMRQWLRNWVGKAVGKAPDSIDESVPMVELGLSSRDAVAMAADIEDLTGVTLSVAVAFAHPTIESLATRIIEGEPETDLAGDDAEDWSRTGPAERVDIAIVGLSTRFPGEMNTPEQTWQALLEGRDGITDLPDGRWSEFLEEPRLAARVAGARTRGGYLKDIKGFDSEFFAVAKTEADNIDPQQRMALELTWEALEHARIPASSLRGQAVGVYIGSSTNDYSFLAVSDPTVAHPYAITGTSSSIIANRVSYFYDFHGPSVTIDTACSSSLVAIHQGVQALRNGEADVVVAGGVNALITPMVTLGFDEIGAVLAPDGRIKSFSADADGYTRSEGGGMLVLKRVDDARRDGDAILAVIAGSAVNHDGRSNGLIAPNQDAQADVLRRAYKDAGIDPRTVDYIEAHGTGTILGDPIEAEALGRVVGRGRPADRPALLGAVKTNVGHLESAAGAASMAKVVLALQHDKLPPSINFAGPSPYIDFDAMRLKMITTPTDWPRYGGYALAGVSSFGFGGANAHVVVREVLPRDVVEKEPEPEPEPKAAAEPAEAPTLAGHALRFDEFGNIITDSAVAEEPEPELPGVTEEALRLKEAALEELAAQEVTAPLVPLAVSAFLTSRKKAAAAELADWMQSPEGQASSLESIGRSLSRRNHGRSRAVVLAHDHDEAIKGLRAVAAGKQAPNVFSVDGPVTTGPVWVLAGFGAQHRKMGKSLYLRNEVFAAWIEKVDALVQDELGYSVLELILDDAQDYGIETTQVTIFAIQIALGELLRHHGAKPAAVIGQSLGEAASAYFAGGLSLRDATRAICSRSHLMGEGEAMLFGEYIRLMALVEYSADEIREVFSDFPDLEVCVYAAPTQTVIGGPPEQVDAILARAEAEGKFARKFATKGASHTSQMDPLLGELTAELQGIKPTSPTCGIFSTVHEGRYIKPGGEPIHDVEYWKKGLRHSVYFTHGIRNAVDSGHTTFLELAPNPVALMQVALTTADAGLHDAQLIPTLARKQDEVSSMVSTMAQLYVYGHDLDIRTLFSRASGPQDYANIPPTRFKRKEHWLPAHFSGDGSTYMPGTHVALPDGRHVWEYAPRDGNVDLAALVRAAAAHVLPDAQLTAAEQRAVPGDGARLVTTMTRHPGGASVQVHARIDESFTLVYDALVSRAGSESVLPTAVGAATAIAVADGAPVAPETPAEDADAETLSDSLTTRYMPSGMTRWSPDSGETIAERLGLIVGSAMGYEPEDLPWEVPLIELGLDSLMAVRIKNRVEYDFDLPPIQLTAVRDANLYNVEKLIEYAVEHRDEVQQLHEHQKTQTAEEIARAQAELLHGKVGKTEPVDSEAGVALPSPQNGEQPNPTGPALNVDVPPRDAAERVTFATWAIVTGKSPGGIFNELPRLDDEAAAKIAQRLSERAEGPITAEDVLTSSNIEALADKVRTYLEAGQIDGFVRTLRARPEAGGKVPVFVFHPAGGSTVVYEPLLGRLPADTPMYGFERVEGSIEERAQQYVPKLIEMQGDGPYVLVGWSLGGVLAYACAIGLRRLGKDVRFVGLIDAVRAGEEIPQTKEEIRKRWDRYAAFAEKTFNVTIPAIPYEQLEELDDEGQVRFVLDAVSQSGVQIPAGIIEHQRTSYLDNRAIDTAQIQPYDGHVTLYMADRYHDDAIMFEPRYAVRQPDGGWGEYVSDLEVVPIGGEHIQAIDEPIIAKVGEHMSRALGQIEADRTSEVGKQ
UniProt P9WFT3, whole entry: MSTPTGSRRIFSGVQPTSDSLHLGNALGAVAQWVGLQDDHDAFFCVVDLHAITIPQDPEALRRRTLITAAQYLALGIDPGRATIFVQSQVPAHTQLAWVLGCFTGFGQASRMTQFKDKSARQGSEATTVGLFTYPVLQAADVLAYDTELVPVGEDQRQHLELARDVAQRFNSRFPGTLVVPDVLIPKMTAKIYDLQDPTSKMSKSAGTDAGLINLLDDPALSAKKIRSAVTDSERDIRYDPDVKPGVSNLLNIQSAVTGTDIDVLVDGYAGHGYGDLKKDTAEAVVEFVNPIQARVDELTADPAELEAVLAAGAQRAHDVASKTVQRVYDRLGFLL
UniProt Q4DA54, 1-478: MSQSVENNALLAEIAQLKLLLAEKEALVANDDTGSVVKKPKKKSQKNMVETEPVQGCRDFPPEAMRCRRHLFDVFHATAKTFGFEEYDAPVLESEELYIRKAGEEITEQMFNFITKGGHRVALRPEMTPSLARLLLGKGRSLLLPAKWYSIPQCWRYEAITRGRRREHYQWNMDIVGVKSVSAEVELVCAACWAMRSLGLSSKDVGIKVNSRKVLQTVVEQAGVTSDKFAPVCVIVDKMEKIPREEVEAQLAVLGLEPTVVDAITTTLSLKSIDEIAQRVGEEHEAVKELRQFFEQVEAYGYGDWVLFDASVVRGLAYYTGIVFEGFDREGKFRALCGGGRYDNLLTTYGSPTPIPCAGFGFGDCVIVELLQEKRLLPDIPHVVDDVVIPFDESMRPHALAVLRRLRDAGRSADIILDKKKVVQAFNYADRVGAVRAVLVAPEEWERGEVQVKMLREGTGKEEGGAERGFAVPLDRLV

Measurements from “University of Dundee, Small-Polar-MMV Screening Library” (2021), ChEMBL document CHEMBL3988442.

PfKRS1: 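Lysine-tRNA ligase, Plasmodium falciparum 3D7 (UniProt Q8IDJ8). Enzyme assay of the cytosolic lysyl-tRNA synthetase in 384-well plates, read by luminescence. Concentration: 30 µM. Higher reads as stronger inhibition, judged from the few compounds that gave an IC50. Size under these conditions: about 69,000 compounds, about 49 of them at 50% or above in at least one test.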
Pks13 thioesterase: 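Enzyme assay of the thioesterase domain of polyketide synthase 13; the read-out is not stated. Target: Polyketide synthase Pks13, Mycobacterium tuberculosis (UniProt I6X8D2). Tested at 30 µM. Higher reads as stronger inhibition (inferred from which compounds were picked for retests). Of about 67,000 compounds tested this way, about 300 (0.46%) reached 50% or more in at least one test.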
MtTrpRS: 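Enzyme assay of tryptophanyl-tRNA synthetase; the read-out is not stated. Target: Tryptophan-tRNA ligase, Mycobacterium tuberculosis (UniProt P9WFT3). Concentration: 10 µM. Higher most likely means stronger inhibition; the record gives no direction and few retests gave an IC50. About 65,000 compounds were tested under these conditions; 0.098% (about 64) showed 50% or more at least once.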
TcHisRS: 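Histidine-tRNA ligase, Trypanosoma cruzi CL Brener (UniProt Q4DA54). Enzyme assay of histidyl-tRNA synthetase; the read-out is not stated. Tested at 30 µM. Higher reads as stronger inhibition (inferred: compounds with an IC50 in retests scored well above the rest). Of about 69,000 compounds tested this way, about 31 (0.045%) reached 50% or more in at least one test.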

Values are the deposited “Percent Effect”, in %. The record does not define 0% and 100%; most values in the screen are far below 50% and negative numbers occur (in some assays of this library far below -100). This is an unselected part of the compounds tested. A dash means the value is not listed here; it may have been measured.

Compound,PfKRS1,Pks13 thioesterase,MtTrpRS,TcHisRS
COCCCNC(=O)Nc1cccc2ncccc12,-4.521,-33.63,8.815,-5.844
COc1cccc2cc(CNCc3ccc(N4CCCC4)nc3)oc12,-1.845,-6.211,5.951,-9.884
O=C(NCCN1CCCCC1CO)c1cc(-c2ccccc2)on1 (centres unmarked),4.778,-12.42,4.75,8.808
CCc1nc2c(c(N3CCOCC3)n1)CCN(C(=O)c1ccon1)CC2,-3.307,19.61,20.2,3.784
CCC(C)N(C)CCNC(=O)c1ccccc1OCCOC (centres unmarked),1.102,-0.8489,-2.792,6.59
CN1CC(c2cc(O)nc(NCc3ccccc3Cl)n2)CC1=O (centres unmarked),3.909,1.853,-,10.64
O=C(c1cscn1)N1CCC2(CCN(Cc3cccs3)CC2)C1,2.922,-25.86,1.482,1.657
CCOCCS(=O)(=O)Cc1ccn(-c2cccc(F)c2)n1,2.505,-29.55,0.7009,0.4926
CCC(C)(C)NC(=O)COC(=O)c1cc(C)ccc1NC(=O)N(C)C,2.666,-10.36,0.3458,7.229
CSc1ncccc1C(=O)NCc1ccc(N(C)C)cc1,-1.353,-41.28,-,-7.955
CCc1ccccc1NC(=O)N1CCn2cnc(COC)c2C1,0.4335,-18.35,0.6706,0.8475
O=C1CCc2cc(OCCN3CCc4cncnc4C3)ccc2N1,8.234,-24.53,-1.192,14.21
CCc1ncncc1C(=O)N1CCCN(Cc2ccc(C#N)cc2)CC1,0.9657,-0.9248,-9.605,4.046
COc1ccc(C2CC(=O)Oc3cc(C)[nH]c(=O)c32)cc1O (centres unmarked),-0.8501,-5.806,3.072,6.024
CC(C)c1noc(CCNC(=O)N2CCSC(C(C)C)C2)n1 (centres unmarked),-1.775,6.715,2.376,4.327
O=C1N(CCO)CCCC12CCN(Cc1noc(C3CCCC3)n1)C2 (centres unmarked),0.7341,-18.34,7.842,-2.235
CS(=O)(=O)N1CCCC(c2cccc(-c3ccccc3F)n2)C1 (centres unmarked),1.348,16.8,-4.243,2.26
OC1(CNCCc2nc3c(s2)CCCC3)CCNC1 (centres unmarked),1.15,-34.98,1.677,14.14
CC(C)n1nc(CN2CCCC2)c2c1CN(CC1CC1)CC2,4.801,1.472,-,10
CC(CN1CCOCC1)NC(=O)c1cc(Cl)c2c(c1)OCO2 (centres unmarked),5.852,-16.5,3.871,-1.754
CCN(C)S(=O)(=O)N1C[C@@H]2CC[C@H](C1)N(Cc1cscn1)C2=O,3.358,3.876,-0.1505,3.922
CCCC(=O)N1CCC(C(=O)NCCNc2ncccn2)CC1,3.507,-4.787,-8.55,0.5814
CNc1nc(C(=O)NCC2CCOc3ccccc3C2)cs1 (centres unmarked),-4.468,-10.56,0.5747,1.19
Cc1ccc(NC(=O)Cc2c(C)nc3c(c2C)c(=O)[nH]n3C)cc1F,3.055,-4.67,-0.3127,5.102
Cc1cccc(CN2CCC3(CC2)CN(c2cccnc2)C(=O)CO3)n1,1.783,-9.479,-,3.175
CCOCC(=O)NC(C#N)c1cnn(-c2ccccc2)c1 (centres unmarked),2.445,-3.929,2.692,3.704
O=C(Cn1cc(I)cn1)N1CCNC1=O,5.58,1.588,-0.9181,6.468
c1cc(CN2CC[C@@H]3CN(c4cncnc4)C[C@@H]3C2)ccn1,2.555,-9.696,-,4.523
O=C(Cn1nc2c(cc1=O)CCCC2)N[C@@H](Cc1ccccc1)C(=O)O,3.114,-36.74,-1.608,2.732
Cc1cnc(N2CC[C@H]3[C@@H]2CCC(=O)N3c2ccccc2)nc1,2.372,-48.41,-,2.21
COCC1CC2(CCN(C(=O)c3ccc(OC)c(Cl)c3)CC2)CO1 (centres unmarked),4.969,-8.2,-1.654,0
O=C(NC1CCN(c2ncccn2)CC1)c1cccc(-n2ccnc2)c1,10.27,1.818,-0.3799,6.667
O=C(c1cccn1Cc1cccs1)N1CCSCC1,-4.163,-2.087,5.221,3.429
O=C(NCc1cccnc1)N1CCn2c(Cn3cccn3)cnc2C1,0.627,-6.391,-6.996,3.941
Cc1c(CCC(=O)N2CCOC(c3cnccn3)C2)cnn1C (centres unmarked),0.3147,-15.35,-12.16,4.651
Cc1cc(CN2C[C@@H]3COC[C@]3(COCC(=O)N(C)C)C2)no1,0.463,-17.03,-6.806,4.673
CCN(C(=O)Cn1cc(Cl)cn1)c1ccccc1,3.601,-39.04,1.329,-0.5525
O=C(Cc1ccon1)N1CCc2cc(Br)sc2C1,1.942,-17.38,3.43,5.319
CCn1cc(S(=O)(=O)N2CCC3(CCCN(CC4CCC4)C3=O)C2)cn1 (centres unmarked),-3.262,-20.95,1.638,8.287
Cc1ccc(CN2C[C@H](O)C[C@H]2c2nc(-c3ccc(F)cc3)no2)cc1,2.762,-11.71,-3.067,3.483
O=C(NCc1nc(C2CC2)no1)N1CCOC(c2cccc(F)c2)C1 (centres unmarked),0.5808,-8.712,2.649,-1.807
COc1cc2cc(C)c(SCCN3CCCC3)nc2cc1OC,1.251,14.57,-5.855,3.383
NCC1(CN2CCOCC2)CCCCC1,1.051,-32.77,-2.794,5.882
O=C(c1cccs1)N1CCc2ncnc(C3CCOC3)c2CC1 (centres unmarked),0.3839,3.123,-1.744,4.082
CC(C)N1CCOC(CC(=O)N2CCCN(Cc3ccncc3)CC2)C1 (centres unmarked),0.3493,-18.61,29.6,4.478
Cc1ccc(C2(CN3CCN(Cc4cncn4C)CC3)CC2)cc1,0.3966,-32.89,11.63,10.15
Cc1ncc2c(n1)CN(CC(=O)Nc1ccc(Cl)cn1)CC2,-0.5433,7.904,0.4172,1.13
CC(=O)N1CCCn2nc(CNC(=O)N3CCCCC3)cc2C1,0.5919,-24.32,0.1236,-2.424
COCc1cncc2c1CCN(C(=O)c1ccc(C#N)cc1)C2,3.276,-9.897,-,3.315
COCCN1CCN(CC(=O)NC2(C#N)CCCC2)CC1C (centres unmarked),-9.162,25.66,5.534,8.824
Cc1oc(-c2ccoc2)nc1CN1CCC[C@H]1CO,5.307,-3.315,-0.6522,2.513
Cc1cc(C)nc(NC2CCC(=O)N(C)C2)n1 (centres unmarked),2.92,-27.86,-1.168,4.433
Cc1nc(O)cc(CN2CC=C(c3cnn(-c4ccccc4)c3)CC2)n1,-1.751,12.61,-15.95,6.557
COCC(=O)N1Cc2c(-c3cccc(C)c3)nc(N)nc2C1C (centres unmarked),5.705,-12.56,1.078,7.216
CC(=O)N1CCCCC1c1ncnn1-c1ccc2nc(C)sc2c1 (centres unmarked),4.079,-24.89,2.683,5.464
CC(CO)NC(=O)Nc1ccc(Cl)cc1OCC(F)(F)F (centres unmarked),5.124,-38.78,-1.644,7.065
CCOC1CCN(C(=O)c2cc(-c3ccc(Cl)cc3)on2)CC1,-1.067,26.71,-1.979,1.667

The first 7 entries again:

* COCCCNC(=O)Nc1cccc2ncccc12 | PfKRS1: -4.521%; Pks13 thioesterase: -33.63%; MtTrpRS: 8.815%; TcHisRS: -5.844%
* COc1cccc2cc(CNCc3ccc(N4CCCC4)nc3)oc12 | PfKRS1: -1.845%; Pks13 thioesterase: -6.211%; MtTrpRS: 5.951%; TcHisRS: -9.884%
* O=C(NCCN1CCCCC1CO)c1cc(-c2ccccc2)on1 (centres unmarked) | PfKRS1: 4.778%; Pks13 thioesterase: -12.42%; MtTrpRS: 4.75%; TcHisRS: 8.808%
* CCc1nc2c(c(N3CCOCC3)n1)CCN(C(=O)c1ccon1)CC2 | PfKRS1: -3.307%; Pks13 thioesterase: 19.61%; MtTrpRS: 20.2%; TcHisRS: 3.784%
* CCC(C)N(C)CCNC(=O)c1ccccc1OCCOC (centres unmarked) | PfKRS1: 1.102%; Pks13 thioesterase: -0.8489%; MtTrpRS: -2.792%; TcHisRS: 6.59%
* CN1CC(c2cc(O)nc(NCc3ccccc3Cl)n2)CC1=O (centres unmarked) | PfKRS1: 3.909%; Pks13 thioesterase: 1.853%; TcHisRS: 10.64%
* O=C(c1cscn1)N1CCC2(CCN(Cc3cccs3)CC2)C1 | PfKRS1: 2.922%; Pks13 thioesterase: -25.86%; MtTrpRS: 1.482%; TcHisRS: 1.657%